Source: PubChem BioAssay AID1259405 (NCATS, 2018)
Shown is one part, drawn at random, of about 50,000 reagents tested. About 4,000 of all reagents (8%) were called active. 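Mouse siRNA library applied to hamster cells; one well for each siRNA.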 Reagents against one gene are numbered here.

Test: 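Mouse-designed siRNAs used to find CHO productivity engineering targets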 (primary screen)
Cells: Chinese hamster CHO-K1 ovary cells with stable secreted eGFP expression
Knock-down reagent: single siRNA against mouse genes, 0.8 pmol siRNA per well (2 µl of 400 nM stock)
Duration: 3 days
Measurement: 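Percent of the per-plate non-targeting control median for intracellular GFP per well by laser scanning cytometry and for cell viability by ATP luminescence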
Reading the numbers: GFP, % of control: higher = more GFP per well, higher productivity; viability (ATP), % of control: higher = more viable cells (more ATP)
Hit rule: 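Called active when intracellular GFP, relative to negative control, is at or above 120%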

gene | siRNA no. | GFP, % of control | viability (ATP), % of control | activity call
Cnih2 | 1 | 67.4 | 57.2 | inactive
Cnih2 | 2 | 58 | 70.9 | inactive
Cnih2 | 3 | 75.7 | 50.5 | inactive
Senp3 | 1 | 73 | 93.2 | inactive
Senp3 | 2 | 45.3 | 56.3 | inactive
Senp3 | 3 | 84.4 | 77.6 | inactive
Fxyd2 | 1 | 95.1 | 63.7 | inactive
Fxyd2 | 2 | 61.2 | 91.9 | inactive
Fxyd2 | 3 | 79.9 | 60.3 | inactive
Vipr2 | 1 | 69.9 | 35.8 | inactive
Vipr2 | 2 | 71.3 | 72.2 | inactive
Vipr2 | 3 | 82.8 | 91.4 | inactive
Ercc8 | 1 | 58.4 | 54.6 | inactive
Ercc8 | 2 | 149 | 97.8 | active
Ercc8 | 3 | 113 | 103 | inactive
Kdm2a | 1 | 47.9 | 65.5 | inactive
Kdm2a | 2 | 101 | 77.2 | inactive
Kdm2a | 3 | 109 | 94.7 | inactive
Cdk2ap1 | 1 | 64.4 | 65.6 | inactive
Cdk2ap1 | 2 | 94.4 | 96.6 | inactive
Fscn3 | 1 | 75.5 | 74.2 | inactive
Fscn3 | 2 | 81.7 | 75.5 | inactive
Fscn3 | 3 | 103 | 69.4 | inactive
Otulin | 1 | 50.5 | 76 | inactive
Otulin | 2 | 77.6 | 90.4 | inactive
Otulin | 3 | 70.5 | 108 | inactive
Smg8 | 1 | 101 | 109 | inactive
Smg8 | 2 | 85.1 | 92.1 | inactive
Smg8 | 3 | 128 | 101 | active
A930018P22Rik | 1 | 117 | 62.1 | inactive
A930018P22Rik | 2 | 59.2 | 47.9 | inactive
A930018P22Rik | 3 | 70.8 | 67.6 | inactive
Tep1 | 1 | 94 | 90.3 | inactive
Tep1 | 2 | 92.4 | 88.1 | inactive

Active calls (from the list above):
gene | siRNA no. | GFP, % of control | viability (ATP), % of control | activity call
Ercc8 | 2 | 149 | 97.8 | active
Smg8 | 3 | 128 | 101 | active
